# ± gives the standard deviation of the averaged measurements. In all, about 3,800 compounds were measured (“cell shape (eccentricity) Z-score vs DMSO control”: median about 1.1, lowest 2% from about -4.7 on). The list shows a part of the results.
# System: human monocyte-derived macrophages (M0)
# Experiment: cell shape (eccentricity) Z-score vs DMSO control; higher = more elongated, M2-like morphology
# Settings: 20 µM; 24 h; macrophage state: M0 (M-CSF)
row,Structure (SMILES),cell shape (Z-score)
1,COc1cc(-c2oc3cc(O)cc(O)c3c(=O)c2O[C@@H]2O[C@H](CO)[C@@H](O)[C@H](O)[C@H]2O)ccc1O[C@@H]1O[C@H](CO)[C@@H](O)[C@H](O)[C@H]1O,0.723 ± 0.78
2,O=C1c2cccc(O)c2C(=O)c2c(O)cc(CO)cc21,2.58
3,COc1c(C)c(O)c(C)c(O)c1C(=O)CCc1ccccc1,0.153
4,CC1(C)CC[C@@]2(C(=O)O)C(C1)C1=CCC3[C@@]4(C)CC[C@H](O)C(C)(C)C4CC[C@@]3(C)[C@]1(C)C[C@H]2O (some centres undefined),2.77
5,CCCCc1nc2ccn(CC(=O)N(C)C)c(=O)c2n1Cc1ccc(-c2ccccc2-c2nnn[nH]2)cc1,1.26
6,C=C(C(=O)O[C@H]1C[C@]2(C)C(C(C=O)CC[C@H]2O)[C@H]2OC(=O)C(=C)[C@H]12)C(O)CO (some centres undefined),0.931
7,NC(=O)Nc1sc(-c2ccc(F)cc2)cc1C(N)=O,5.51
8,C/C(=C/CCC(CO)C1CCC2(C)C3CCC4C(C)(C)C(OC5OC(CO)C(O)C(O)C5O)CC(O)C45CC35CCC12C)COC1OC(CO)C(O)C(O)C1O (centres undefined),0.127
9,N=C(N)SCCc1ccc(OCc2ccc([N+](=O)[O-])cc2)cc1,0.464
10,CCOC(=O)[C@@H](CCc1ccccc1)N[C@H](C)C(=O)N1[C@@H]2CCC[C@H]2C[C@H]1C(=O)O,-0.36
11,COC(=O)C1=CO[C@@H](O[C@@H]2O[C@H](CO)[C@@H](O)[C@H](O)[C@H]2O)[C@H]([C@H](C)OC(C)=O)[C@@H]1CC(=O)O,-1.45
12,C=CC(C)(O)CC/C=C(\CO)C(=O)O[C@@H]1C(C)O[C@@H](O[C@](C)(C=C)CC/C=C(\CO)C(=O)O[C@H]2C[C@@]3(C(=O)O[C@@H]4OC(CO)[C@@H](O)[C@@H](O)[C@@H]4O[C@@H]4OC(C)[C@H](O[C@@H]5O[C@@H](CO)[C@H](O)[C@@H]5O)[C@@H](O[C@@H]5OC(CO)[C@@H](O)[C@@H](O)[C@@H]5O)[C@@H]4O)C(CC2(C)C)C2=CCC4[C@@]5(C)CC[C@H](O[C@@H]6OC(CO[C@@H]7OC(C)[C@H](O)[C@@H](O)[C@@H]7O[C@@H]7OC[C@@H](O)[C@@H](O)[C@@H]7O)[C@@H](O)[C@@H](O)[C@@H]6NC(C)=O)C(C)(C)C5CC[C@@]4(C)[C@]2(C)C[C@H]3O)[C@@H](O)[C@@H]1O (some centres undefined),6.07
13,COC(=O)C1=CO[C@@H](O[C@@H]2O[C@H](CO)[C@@H](O)[C@H](O)[C@H]2O)[C@H]2[C@@H]1C=CC21C=C([C@H](C)O)C(=O)O1 (some centres undefined),2.96
14,COC1=CC(=O)O[C@@H](/C=C/c2ccccc2)[C@@H]1O,-1.25
15,CC[N+](C)(CC)CC(=O)Nc1c(C)cccc1C,-0.632
16,CC(CCCCC(=O)Nc1ccc(C(F)(F)F)cc1)NCCc1c[nH]cn1 (centres undefined),-3.62
17,COC1=CC(C)c2c(c(OC)c3occ(C)c3c2C)C1=O (centres undefined),0.208
18,CCCCc1nc(Cl)c(CO)n1Cc1ccc(-c2ccccc2-c2nnn[nH]2)cc1,0.487
19,O=C(O)CCCN1C(=O)c2cccc3cccc(c23)C1=O,1.83
20,O=C(/C=C/c1ccc(O)c(O)c1)c1ccc(O)cc1O,-2.96
21,C=C1[C@]2(C)C[C@@H]3C(=C)[C@@]4(C=CC(=O)OC4(C)C)CC[C@@]3(C)[C@]13C(=O)O[C@H](C)[C@]3(O)C2=O,0.728 ± 1.9
22,CNCCC(Oc1ccc(C(F)(F)F)cc1)c1ccccc1 (centres undefined),-4.88
23,C[C@@H]1O[C@@H](O[C@H]2[C@H](OC(=O)[C@]34CCC(C)(C)C[C@H]3C3=CCC5[C@@]6(C)C[C@H](O)[C@H](O[C@@H]7O[C@H](C(=O)O)[C@@H](O)[C@H](O)[C@H]7O)[C@@](C)(CO)C6[C@H](O)C[C@@]5(C)[C@]3(C)C[C@H]4O)O[C@@H](CO)[C@@H]2O)[C@H](O)[C@H](O)[C@H]1O[C@@H]1OC[C@@H](O)[C@H](O[C@H]2OC[C@](O)(CO)[C@H]2O)[C@H]1O (some centres undefined),-10.1
24,COc1cc(S(C)=O)ccc1-c1nc2ncccc2[nH]1 (centres undefined),-0.92
25,CN(C)CCCOc1nn(Cc2ccccc2)c2ccccc12,2.34

row,Structure (SMILES),cell shape (Z-score)
1,O=S(=O)(c1cccc2c(O)nccc12)N1CCCNCC1,0.439
2,COc1cc(O)c(C(C)=O)c(OC)c1,1.4
3,CC(C)[C@H]1CC[C@H](C(=O)N[C@@H](Cc2ccccc2)C(=O)O)CC1,3.86
4,Cc1c(CC(C)(C)C(=O)O)n(Cc2ccc(Cl)cc2)c2ccc(F)cc12,2.64
5,CCc1c(O)cc(OC)c2c1O[C@H](C)CC2=O,1.92
6,O=C(O)[C@@H]1CCCC[C@@H]1C(=O)N1CCc2ccccc2[C@H]1CN1C(=O)c2ccccc2C1=O,-1.26
7,CN1CCc2c(c3ccccc3n2Cc2ccccc2)C1,2.69
8,CCN(CC)CCOC(=O)C1(c2ccc([N+](=O)[O-])cc2)CCCC1,2.42
9,COc1cccc2cc(-c3nc([C@H]4CC[C@H](C(=O)O)CC4)n4ncnc(N)c34)[nH]c12,2.16
10,CC1=C2C(O)C(=O)OC3CC4C(C)(C)C(=O)C=C[C@]4(C)C(CC1)[C@]23C (some centres undefined),-1.55
11,CC1OC(OC2C(CO)OC(OC(=O)[C@]34CCC(C)(C)CC3C3=CCC5[C@@]6(C)CC[C@H](OC7OC(C)C(OC8OCC(O)(COC9OCC(O)C(OC%10OCC(OC%11OCC(O)(CO)C%11O)C(O)C%10O)C9O)C8O)C(O)C7O)C(C)(C)C6CC[C@@]5(C)[C@]3(C)CC4)C(O)C2O)C(O)C(O)C1O (some centres undefined),2.74
12,CC12CCC3c4ccc(O)cc4CCC3C1CCC2=O (centres undefined),0.327
13,CCCn1c(=O)c2[nH]c(C34CC5CC(CC3C5)C4)nc2n(CCC)c1=O,-0.766
14,C=C1CCC2C(CC2(C)C)C(=O)CCC1O (centres undefined),-1.93
15,C=C[C@]1(C)CC[C@H]([C@H](C)C(=O)/C=C/C(C)(C)O)O1,1.96
16,N#Cc1cnc2c(Cl)cc(NCc3cnc[nH]3)cc2c1Nc1ccc(F)c(Cl)c1,3.5
17,COCc1nc2c(=O)n(C)c(=O)n(CC(C)C)c2[nH]1,0.361
18,CCCCCCCCCCCCCCCCCCc1ccc(C(=O)C=CC(=O)O)cc1,0.47
19,CC1CCC2(C)C(CC(O)C(O)C2(O)CO)C1(C)CCc1ccoc1 (centres undefined),0.144
20,CCC(C)CCC(O)C1=C(C)C(O)OC1=O (centres undefined),1.6
21,COc1ccc(/C=C/C(=O)O[C@H]2[C@H](OC3C4O[C@]4(CO)[C@H]4C(O[C@@H]5O[C@H](CO)[C@@H](O)[C@H](O)[C@H]5O)OC=C[C@@H]34)O[C@@H](C)[C@H](O)[C@H]2O)cc1 (some centres undefined),0.623
22,Clc1cccc(Cl)c1N=C1NCCN1,0.157
23,O=C1C(CCS(=O)c2ccccc2)C(=O)N(c2ccccc2)N1c1ccccc1 (centres undefined),1.88
24,CC(=O)Oc1cccc(C(=O)O)c1OC(C)=O,0.0206
25,CN(C)CCC=C1c2ccccc2CCc2ccccc21,-2.82

# 6 records drawn at random from the list so far, as already listed:
row,Structure (SMILES),cell shape (Z-score)
17,COC1=CC(C)c2c(c(OC)c3occ(C)c3c2C)C1=O (centres undefined),0.208
23,C[C@@H]1O[C@@H](O[C@H]2[C@H](OC(=O)[C@]34CCC(C)(C)C[C@H]3C3=CCC5[C@@]6(C)C[C@H](O)[C@H](O[C@@H]7O[C@H](C(=O)O)[C@@H](O)[C@H](O)[C@H]7O)[C@@](C)(CO)C6[C@H](O)C[C@@]5(C)[C@]3(C)C[C@H]4O)O[C@@H](CO)[C@@H]2O)[C@H](O)[C@H](O)[C@H]1O[C@@H]1OC[C@@H](O)[C@H](O[C@H]2OC[C@](O)(CO)[C@H]2O)[C@H]1O (some centres undefined),-10.1
13,COC(=O)C1=CO[C@@H](O[C@@H]2O[C@H](CO)[C@@H](O)[C@H](O)[C@H]2O)[C@H]2[C@@H]1C=CC21C=C([C@H](C)O)C(=O)O1 (some centres undefined),2.96
14,COC1=CC(=O)O[C@@H](/C=C/c2ccccc2)[C@@H]1O,-1.25
19,CC1CCC2(C)C(CC(O)C(O)C2(O)CO)C1(C)CCc1ccoc1 (centres undefined),0.144
1,COc1cc(-c2oc3cc(O)cc(O)c3c(=O)c2O[C@@H]2O[C@H](CO)[C@@H](O)[C@H](O)[C@H]2O)ccc1O[C@@H]1O[C@H](CO)[C@@H](O)[C@H](O)[C@H]1O,0.723 ± 0.78

# More entries follow.

row,Structure (SMILES),cell shape (Z-score)
1,CC(C)(C)c1cc(C(=O)/C=C/c2ccc(C(=O)O)cc2)cc(C(C)(C)C)c1,5.51
2,CC(=O)O[C@H]1C[C@@]2(C)[C@@H](C[C@@H](O)C3[C@]2(C)CC[C@H]2[C@H](C)[C@H](O)CC[C@]32C)/C1=C(/CCC=C(C)C)C(=O)O (some centres undefined),0.356
3,COc1cc2cc(Oc3ccc4ccc(=O)oc4c3)c(=O)oc2cc1OC1OC(COC(=O)CC(C)(O)CC(=O)O)C(O)C(O)C1O (centres undefined),-0.188
4,COc1cc(O)c2c(c1)OC(c1ccc(O)cc1)CC2=O (centres undefined),-0.856
5,CCCCCCCC(=O)O,1.79
6,Cc1ccc(-c2cc(C(F)(F)F)nn2-c2ccc(S(N)(=O)=O)cc2)cc1,1.41
7,CC1CC(=O)c2c(ccc3c2C(=O)c2c(O[C@@H]4O[C@@H](C)[C@H](O)[C@@H](O)[C@H]4O)cccc2C3=O)C1 (some centres undefined),-0.371 ± 0.36
8,COCc1cc(O)c(O)c(O)c1-c1c(COC)cc(O)c(O)c1O,0.769
9,CCOC(=O)[C@H](CCc1ccccc1)N[C@@H](C)C(=O)N1[C@H](C(=O)O)C[C@H]2CCCC[C@@H]21,-0.909
10,C=C1C2CCC3[C@]4(C)CCC[C@@](C)(C(=O)O)C4CC[C@]3(C2)C1OC(C)=O (some centres undefined),0.977
11,CC(C)=C1C[C@@]2(CO)C(=CC1=O)CC[C@@H](O)[C@@H]2C,1.67
12,O=C(Nc1ccc(C(=O)O)c(O)c1)c1ccccc1,1.5
13,COc1cc(O)c2c(c1C)C(C)C(O)(CO)OC2=O (centres undefined),0.579
14,CC(=O)Oc1cc2c(c(C)c1OC(C)=O)CC=C1[C@@]2(C)CC[C@@]2(C)C3C[C@](C)(C(=O)O)CC[C@]3(C)CC[C@]12C (some centres undefined),-13.8
15,CN(Cc1ccccc1)C(=O)[C@H](Cc1ccc2ccccc2c1)NC(=O)[C@@H]1C[C@@H](O)CN1C(=O)c1cn(C)c2ccccc12,3.67
16,C=C1CCC2[C@](C)(CCC[C@]2(C)C(=O)O)[C@H]1CC/C(C)=C/C(=O)O (some centres undefined),0.268
17,CC(C)[C@H](O)C(=O)N[C@@H](C)C(=O)N[C@@H]1C(=O)N(C)CCc2ccccc21,-0.303
18,OC(CCl)CN1CC[N+]2(CC1)CC[N+]1(CCN(CC(O)CCl)CC1)CC2 (centres undefined),-0.229
19,Cc1noc(NS(=O)(=O)c2cccc3c(N(C)C)cccc23)c1C,-0.278
20,CC(=O)N[C@H]1[C@H](O[C@H]2CC[C@@]3(C)C(CC[C@]4(C)C3CC=C3[C@@H]5CC(C)(C)CC[C@]5(C(=O)OC5OCC(O)C(O)C5O)C(O)C[C@]34C)C2(C)C)O[C@H](COC2OCC(O)C(OC3OCC(O)C(O)C3O)C2O)[C@@H](O[C@@H]2O[C@@H](C)[C@H](O)[C@@H](O)[C@H]2O[C@@H]2O[C@@H](C)[C@H](O)[C@@H](O)[C@H]2O)[C@@H]1O (some centres undefined),-2.27 ± 4.4
21,CCOC(=O)C1CN(Cc2ccccc2)C(=O)C1=O (centres undefined),3.41
22,COCCOC(=O)C1=C(C)NC(C)=C(C(=O)OCC=Cc2ccccc2)C1c1cccc([N+](=O)[O-])c1 (centres undefined),3.39
23,CCN1C(=CC=Cc2ccc3ccccc3[n+]2CC)C=Cc2ccccc21,-7.46
24,COc1cc(/C=C/C(=O)O[C@H]2CC[C@]34CC35CC[C@]3(C)[C@@H](C(C)CCC=C(C)C)CC[C@@]3(C)C5CCC4C2(C)C)ccc1O (some centres undefined),-1.25
